Some results were stated once for a whole list of compounds, not compound by compound.
What was measured:
[1] = molecular target: T1, Staphylococcus aureus PDF (SaPDF) (Staphylococcus aureus, UniProt P68826); assay: PDF IC50 assay (FDH-coupled), S. aureus PDF; type: biochemical; conditions: read-out: IC50, inhibition of S. aureus PDF activity
T1 sequence (P68826 1-183): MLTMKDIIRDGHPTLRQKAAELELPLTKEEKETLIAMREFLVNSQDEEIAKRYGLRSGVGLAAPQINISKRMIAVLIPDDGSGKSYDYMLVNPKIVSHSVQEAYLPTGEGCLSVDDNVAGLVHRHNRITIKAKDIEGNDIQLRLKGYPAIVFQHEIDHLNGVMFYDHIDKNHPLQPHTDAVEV

[2] = molecular target: T2, Streptococcus pneumoniae PDF (Streptococcus pneumoniae serotype 4, UniProt Q9F2F0); assay: PDF IC50 assay (FDH-coupled), S. pneumoniae PDF; type: biochemical; conditions: read-out: IC50, inhibition of S. pneumoniae PDF activity
T2 sequence (Q9F2F0 1-203): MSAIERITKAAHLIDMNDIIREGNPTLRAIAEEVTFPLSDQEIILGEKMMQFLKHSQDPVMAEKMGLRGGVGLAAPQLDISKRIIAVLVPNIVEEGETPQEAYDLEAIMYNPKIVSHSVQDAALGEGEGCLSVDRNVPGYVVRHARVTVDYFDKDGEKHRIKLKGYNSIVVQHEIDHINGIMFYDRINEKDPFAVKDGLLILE

Compound: CCCC[C@H](CN(O)C=O)C(=O)NNc1nc(Cl)nc(N2CCN3CCCC[C@@H]3C2)c1F [Example 201, {(2R)-2-[(2-{2-Chloro-5-fluoro-6-[(9aR)-octahydro-2H-pyrido[1,2-a]pyrazin-2-yl]-4-pyrimidinyl}hydrazino)carbonyl]hexyl}hydroxyformamide]
- IC50 [1]: ≤ 100 nM
- IC50 [2]: ≤ 100 nM

Compound: O=CN(O)C[C@@H](CC1CCCC1)C(=O)NNc1nc(Cl)nc(NC2CCCC2)c1F [Example 163, [(2R)-3-{2-[2-Chloro-6-(cyclopentylamino)-5-fluoro-4-pyrimidinyl]hydrazino}-2-(cyclopentylmethyl)-3-oxopropyl]hydroxyformamide]
- IC50 [1]: ≤ 100 nM
- IC50 [2]: ≤ 100 nM

Compound: Cc1nc(NNC(=O)[C@H](CC2CCCC2)CN(O)C=O)c(F)c(N2CCOC[C@@H]2C)n1 [Example 240, [(2R)-2-(Cyclopentylmethyl)-3-(2-{5-fluoro-2-methyl-6-[(3S)-3-methyl-4-morpholinyl]-4-pyrimidinyl}hydrazino)-3-oxopropyl]hydroxyformamide]
- IC50 [1]: ≤ 100 nM
- IC50 [2]: ≤ 100 nM

Compound: CCN1CCN(c2nc(OC)nc(NNC(=O)[C@H](CC3CCCC3)CN(O)C=O)c2F)CC1 [Example 75, ((2R)-2-(Cyclopentylmethyl)-3-{2-[6-(4-ethyl-1-piperazinyl)-5-fluoro-2-(methyloxy)-4-pyrimidinyl]hydrazino}-3-oxopropyl)hydroxyformamide]
- IC50 [1]: ≤ 100 nM
- IC50 [2]: ≤ 100 nM

Compound: O=CN(O)C[C@@H](CC1CCCC1)C(=O)NNc1nc(Cl)nc(NCCc2ccoc2)c1F [Example 281, [(2R)-3-[2-(2-Chloro-5-fluoro-6-{[2-(3-furanyl)ethyl]amino}-4-pyrimidinyl)hydrazino]-2-(cyclopentylmethyl)-3-oxopropyl]hydroxyformamide]
- IC50 [1]: ≤ 100 nM
- IC50 [2]: ≤ 100 nM

Compound: CCc1nc(NNC(=O)[C@H](CC2CCCC2)CN(O)C=O)c(F)c(N2CCN(CCO)CC2)n1 [Example 33, N-[(2R)-2-(Cyclopentylmethyl)-3-(2-{2-ethyl-5-fluoro-6-[4-(2-hydroxyethyl)-1-piperazinyl]-4-pyrimidinyl}hydrazino)-3-oxopropyl]-N-hydroxyformamide]
- IC50 [1]: ≤ 100 nM
- IC50 [2]: ≤ 100 nM

Compound: C[C@H]1CN(c2nc(Cl)nc(NNC(=O)[C@H](CC3CCCC3)CN(O)C=O)c2F)CCN1C [Example 61, [(2R)-3-(2-{2-Chloro-6-[(3S)-3,4-dimethyl-1-piperazinyl]-5-fluoro-4-pyrimidinyl}hydrazino)-2-(cyclopentylmethyl)-3-oxopropyl]hydroxyformamide]
- IC50 [1]: ≤ 100 nM
- IC50 [2]: ≤ 100 nM

Compound: CCCC[C@H](CN(O)C=O)C(=O)NNc1nc(Cl)nc(N2CCN(C)[C@H](C)[C@@H]2C)c1F [Example 228, [(2R)-3-(2-{2-Chloro-5-fluoro-6-[(2S,3R)-2,3,4-trimethyl-1-piperazinyl]-4-pyrimidinyl}hydrazino)-2-(cyclopentylmethyl)-3-oxopropyl]hydroxyformamide]
- IC50 [1]: ≤ 100 nM
- IC50 [2]: ≤ 100 nM

Compound: CCC1(N2CCCC2)CN(c2nc(SC)nc(NNC(=O)[C@H](CC3CCCC3)CN(O)C=O)c2F)C1 [Example 218, ((2R)-2-(Cyclopentylmethyl)-3-{2-[6-[3-ethyl-3-(1-pyrrolidinyl)-1-azetidinyl]-5-fluoro-2-(methylthio)-4-pyrimidinyl]hydrazino}-3-oxopropyl)hydroxyformamide]
- IC50 [1]: ≤ 100 nM
- IC50 [2]: ≤ 100 nM

Compound: CCN(C)C[C@@H]1CCCN1c1nc(Cl)nc(NNC(=O)[C@H](CC2CCCC2)CN(O)C=O)c1F [Example 255, [(2R)-3-{2-[2-Chloro-6-((2S)-2-{[ethyl(methyl)amino]methyl}-1-pyrrolidinyl)-5-fluoro-4-pyrimidinyl]hydrazino}-2-(cyclopentylmethyl)-3-oxopropyl]hydroxyformamide]
- IC50 [1]: ≤ 100 nM
- IC50 [2]: ≤ 100 nM

Compound: O=CN(O)C[C@@H](CC1CCCC1)C(=O)NNc1nc(Cl)nc(N2CCC[C@H]2CN2CCCCC2)c1F [Example 264, [(2R)-3-(2-{2-Chloro-5-fluoro-6-[(2S)-2-(1-piperidinylmethyl)-1-pyrrolidinyl]-4-pyrimidinyl}hydrazino)-2-(cyclopentylmethyl)-3-oxopropyl]hydroxyformamide]
- IC50 [1]: ≤ 100 nM
- IC50 [2]: ≤ 100 nM

Compound: CCc1nc(NNC(=O)[C@H](CC2CCCC2)CN(O)C=O)c(F)c(N2C[C@@H](C)[C@H](N(C)C)C2)n1 (single isomer, unassigned) [Example 101]
- IC50 [1]: ≤ 100 nM
- IC50 [2]: ≤ 100 nM

Compound: CSc1nc(NNC(=O)[C@H](CC2CCCC2)CN(O)C=O)c(F)c(N2CC(O)(C3CC3)C2)n1 [Example 217, ((2R)-2-(Cyclopentylmethyl)-3-{2-[6-(3-cyclopropyl-3-hydroxy-1-azetidinyl)-5-fluoro-2-(methylthio)-4-pyrimidinyl]hydrazino}-3-oxopropyl)hydroxyformamide]
- IC50 [1]: ≤ 100 nM
- IC50 [2]: ≤ 100 nM

Compound: CN(C)[C@@H]1CCN(c2nc(C(F)F)nc(NNC(=O)[C@H](CC3CCCC3)CN(O)C=O)c2F)C1 [Example 76, [(2R)-2-(Cyclopentylmethyl)-3-(2-{2-(difluoromethyl)-6-[(3R)-3-(dimethylamino)-1-pyrrolidinyl]-5-fluoro-4-pyrimidinyl}hydrazino)-3-oxopropyl]hydroxyformamide]
- IC50 [1]: ≤ 100 nM
- IC50 [2]: ≤ 100 nM

Compound: Cc1nc(NNC(=O)[C@H](CC2CCCC2)CN(O)C=O)c(F)c(N2C[C@@H](C)N(C)[C@@H](C)C2)n1 [Example 149, N-[(2R)-2-(Cyclopentylmethyl)-3-(2-{5-fluoro-2-methyl-6-[(3R,5S)-3,4,5-trimethyl-1-piperazinyl]-4-pyrimidinyl}hydrazino)-3-oxopropyl]-N-hydroxyformamide]
- IC50 [1]: ≤ 100 nM
- IC50 [2]: ≤ 100 nM

Compound: Cc1nc(NNC(=O)[C@H](CC2CCCC2)CN(O)C=O)c(F)c(N2CCC(c3ccncc3)C2)n1 (stereo partly drawn) [Example 165, [(2R)-2-(Cyclopentylmethyl)-3-(2-{5-fluoro-2-methyl-6-[3-(4-pyridinyl)-1-pyrrolidinyl]-4-pyrimidinyl}hydrazino)-3-oxopropyl]hydroxyformamide]
- IC50 [1]: ≤ 100 nM
- IC50 [2]: ≤ 100 nM

Compound: CN(C)[C@H]1CCN(c2nc(C(F)F)nc(NNC(=O)[C@H](CC3CCCC3)CN(O)C=O)c2F)C1 [Example 81, [(2R)-2-(Cyclopentylmethyl)-3-(2-{2-(difluoromethyl)-6-[(3S)-3-(dimethylamino)-1-pyrrolidinyl]-5-fluoro-4-pyrimidinyl}hydrazino)-3-oxopropyl]hydroxyformamide]
- IC50 [1]: ≤ 100 nM
- IC50 [2]: ≤ 100 nM

Compound: CCc1nc(NNC(=O)[C@H](CC2CCCC2)CN(O)C=O)c(F)c(N2CCN(C)CC2)n1 [Example 25, ((2R)-2-(Cyclopentylmethyl)-3-{2-[2-ethyl-5-fluoro-6-(4-methyl-1-piperazinyl)-4-pyrimidinyl]hydrazino}-3-oxopropyl)hydroxyformamide]
- IC50 [1]: ≤ 100 nM
- IC50 [2]: ≤ 100 nM

Compound: CN(C)CC(C)(C)C1CCN(c2nc(Cl)nc(NNC(=O)[C@H](CC3CCCC3)CN(O)C=O)c2F)C1 (mixture of isomers) [Example 197, [(2R)-3-[2-(2-Chloro-6-{3-[2-(dimethylamino)-1,1-dimethylethyl]-1-pyrrolidinyl}-5-fluoro-4-pyrimidinyl)hydrazino]-2-(cyclopentylmethyl)-3-oxopropyl]hydroxyformamide]
- IC50 [1]: ≤ 100 nM
- IC50 [2]: ≤ 100 nM

Compound: O=CN(O)C[C@@H](CC1CCCC1)C(=O)NNc1nc(Cl)nc(N2C[C@H]3COC[C@H]3C2)c1F [Example 200, [(2R)-3-{2-[2-Chloro-5-fluoro-6-(tetrahydro-1H-furo[3,4-c]pyrrol-5(3H)-yl)-4-pyrimidinyl]hydrazino}-2-(cyclopentylmethyl)-3-oxopropyl]hydroxyformamide]
- IC50 [1]: ≤ 100 nM
- IC50 [2]: ≤ 100 nM

Compound: Cc1nc(NNC(=O)[C@H](CC2CCCC2)CN(O)C=O)c(F)c(N2CCC[C@H]2CN2CCOCC2)n1 [Example 243, [(2R)-2-(Cyclopentylmethyl)-3-(2-{5-fluoro-2-methyl-6-[(2S)-2-(4-morpholinylmethyl)-1-pyrrolidinyl]-4-pyrimidinyl}hydrazino)-3-oxopropyl]hydroxyformamide]
- IC50 [1]: ≤ 100 nM
- IC50 [2]: ≤ 100 nM

Compound: Cc1nc(NNC(=O)[C@H](CC2CCCC2)CN(O)C=O)c(F)c(N2CCN3CCCC[C@@H]3C2)n1 [Example 188, [(2R)-2-(Cyclopentylmethyl)-3-(2-{5-fluoro-2-methyl-6-[(9aR)-octahydro-2H-pyrido[1,2-a]pyrazin-2-yl]-4-pyrimidinyl}hydrazino)-3-oxopropyl]hydroxyformamide]
- IC50 [1]: ≤ 100 nM
- IC50 [2]: ≤ 100 nM

Compound: CCc1nc(NNC(=O)[C@H](CC2CCCC2)CN(O)C=O)c(F)c(N[C@H](C)C(=O)N(C)C)n1 [Example 77, N2-(6-{2-[(2R)-3-Cyclopentyl-2-{[formyl(hydroxy)amino]methyl}propanoyl]hydrazino}-2-ethyl-5-fluoro-4-pyrimidinyl)-N,N-dimethyl-D-alaninamide]
- IC50 [1]: ≤ 100 nM
- IC50 [2]: ≤ 100 nM

Compound: CCc1nc(NNC(=O)[C@H](CC2CCCC2)CN(O)C=O)c(F)c(N2CC(N(C)C)C3(CC3)C2)n1 (mixture of isomers) [Example 135, [(2R)-2-(Cyclopentylmethyl)-3-(2-{6-[7-(dimethylamino)-5-azaspiro[2.4]hept-5-yl]-2-ethyl-5-fluoro-4-pyrimidinyl}hydrazino)-3-oxopropyl]hydroxyformamide]
- IC50 [1]: ≤ 100 nM
- IC50 [2]: ≤ 100 nM

From patent publication US7893056B2, “Peptide deformylase inhibitors” (GlaxoSmithKline LLC, priority 2007, dated 2011)
